Literature values as cited in US6670356B2, “Analogs of galanthamine and lycoramine as modulators of nicotinic receptors” (priority 1999, dated 2003).
For at least one compound, name, drawing or mass did not settle the structure.

Assays:
[1] = system: nicotinic receptors of PC12 cells
[2] = system: superior cervical ganglion; settings: cat
[3] = inside-out patches from PC 12 cells

SMILES	Single channel activity after incubation with FK1 (competitive monoclonal antibody to physostigmine) ([1]; PC12 cells)	Channel activation [1, 3]	Effect of methyllycaconitine (competitive nicotinic antagonist) on channel activation by the substance [1, 3]	Preservation of the ganglionic surface potential ([2]; direct recordings, treated ganglia)	Inhibition of hexamethonium (C6) induced ganglionic blockade ([2]; intra-arterially, 250 micrograms)	Mode of action at nicotinic receptors ([1]; PC12 cells)	Whole-cell currents evoked ([1]; PC12 cells)
CC(=O)OCC[N+](C)(C)C [acetylcholine]	still could	can also be produced by acetylcholine	blocks				
CNC(=O)Oc1ccc2c(c1)[C@]1(C)CCN(C)[C@@H]1N2C [physostigmine]	neither physostigmine nor galanthamine could induce	cause some channel activation		not	not	noncompetitive agonists	do not evoke sizable whole-cell currents
